Assay results reported in EPA's CvTdb concentration-time database.
Where “and” joins values, the source holds several entries; their conditions need not be identical. Identical values can stand only once. Further values from the same series stand in other lists.

Legend:
Experiment in all cases: concentration in plasma after dosing
[1] = test system: Mouse; settings: 0.5 h; dosed: 2-Hydroxy-4-methoxybenzophenone; 500 mg/kg; oral; Female; B6C3F1
[2] = test system: Mouse; settings: 6 h; dosed: 2-Hydroxy-4-methoxybenzophenone; 50 mg/kg; iv; Male; B6C3F1
[3] = test system: Mouse; settings: dosed: 2-Hydroxy-4-methoxybenzophenone, B6C3F1
[4] = test system: Rat
[5] = test system: Mouse; settings: 1.5 h; dosed: 2-Hydroxy-4-methoxybenzophenone; 250 mg/kg; oral; Male; B6C3F1
[6] = test system: Rat; settings: 2 h; dosed: 2-Hydroxy-4-methoxybenzophenone; 250 mg/kg; oral; Female; F344
[7] = test system: Rat; settings: dosed: 2-Hydroxy-4-methoxybenzophenone, 8 mg/kg, iv, Male, F344
[8] = test system: Mouse; settings: 12 h; dosed: 2-Hydroxy-4-methoxybenzophenone; 50 mg/kg; iv; Male; B6C3F1
[9] = test system: Mouse; settings: 5 min; dosed: 2-Hydroxy-4-methoxybenzophenone; 250 mg/kg; oral; Male; B6C3F1
[10] = test system: Rat; settings: dosed: 2-Hydroxy-4-methoxybenzophenone, 500 mg/kg, oral, Male, F344
[11] = test system: Rat; settings: 3 h; dosed: Perfluorohexanoic Acid; 80 mg/kg; oral; Female; Harlan Sprague Dawley
[12] = test system: Rat; settings: dosed: Perfluorohexanoic Acid, 80 mg/kg, oral, Female, Harlan Sprague Dawley

O=C(c1ccccc1)c1ccc(O)cc1O [2,4-Dihydroxybenzophenone]
Settings	concentration in plasma [ng/mL]
[1]	2910
[2]	136
[5]	382
[6]	147

concentration in plasma, [3]
Settings	Female	Male
0.5 h, 50 mg/kg, iv	278 ng/mL	416 ng/mL
0.5 h, 100 mg/kg, oral	162 ng/mL	397 ng/mL
0.5 h, 250 mg/kg, oral	477 ng/mL	1840 ng/mL
0.5 h, 500 mg/kg, oral	2390 ng/mL	3720 ng/mL
0.75 h, 100 mg/kg, oral	80.4 ng/mL	220 ng/mL
1 h, 50 mg/kg, iv	80.5 ng/mL	308 ng/mL
1 h, 100 mg/kg, oral	67.4 ng/mL	266 ng/mL
1 h, 250 mg/kg, oral	173 ng/mL	377 ng/mL
1 h, 500 mg/kg, oral	863 ng/mL	1640 ng/mL
1.5 h, 50 mg/kg, iv	83.6 ng/mL	188 ng/mL
1.5 h, 100 mg/kg, oral	70 ng/mL	75.5 ng/mL
1.5 h, 250 mg/kg, oral	99.1 ng/mL	365 ng/mL
2.5 min, 250 mg/kg, oral	102 ng/mL	–
2.5 min, 500 mg/kg, oral	719 ng/mL	187 ng/mL
4 h, 50 mg/kg, iv	43.4 ng/mL	148 ng/mL
4 h, 100 mg/kg, oral	41.1 ng/mL	142 ng/mL
4 h, 250 mg/kg, oral	104 ng/mL	141 ng/mL
4 h, 500 mg/kg, oral	219 ng/mL	429 ng/mL
5 h, 100 mg/kg, oral	32.5 ng/mL	182 ng/mL
5 h, 250 mg/kg, oral	89.2 ng/mL	162 ng/mL
5 min, 50 mg/kg, iv	2940 ng/mL	4310 ng/mL
5 min, 100 mg/kg, oral	330 ng/mL	68.7 ng/mL
5 min, 250 mg/kg, oral	459 ng/mL	387 ng/mL
5 min, 500 mg/kg, oral	775 ng/mL	763 ng/mL
6 h, 50 mg/kg, iv	85.7 ng/mL	131 ng/mL
6 h, 100 mg/kg, oral	–	38.5 ng/mL
6 h, 250 mg/kg, oral	226 ng/mL	175 ng/mL
6 h, 500 mg/kg, oral	192 ng/mL	115 ng/mL
7 h, 250 mg/kg, oral	69.9 ng/mL	171 ng/mL
8 h, 50 mg/kg, iv	42.8 ng/mL	163 ng/mL
8 h, 500 mg/kg, oral	93.5 ng/mL	275 ng/mL
10 h, 500 mg/kg, oral	33.6 ng/mL	74.9 ng/mL
12 h, 50 mg/kg, iv	43.5 ng/mL	79.9 ng/mL
12 h, 500 mg/kg, oral	43.6 ng/mL and 71.2 ng/mL	239 ng/mL
16 h, 50 mg/kg, iv	66.8 ng/mL	116 ng/mL
16 h, 500 mg/kg, oral	52.7 ng/mL	42.3 ng/mL

concentration in plasma [ng/mL], [4], dosed: 2-Hydroxy-4-methoxybenzophenone, F344
Settings	Female	Male
0.25 h, 8 mg/kg, iv	101	55.7
0.5 h, 8 mg/kg, iv	49.6	35.3
0.5 h, 250 mg/kg, oral	658	–
1 h, 8 mg/kg, iv	–	37.6
1 h, 100 mg/kg, oral	130	112
1 h, 250 mg/kg, oral	441	271
1 h, 500 mg/kg, oral	838	1430
1.5 h, 100 mg/kg, oral	68	76.7
1.5 h, 250 mg/kg, oral	347	157
2 h, 100 mg/kg, oral	87.9	59.8
2 h, 250 mg/kg, oral	190	179
2 h, 500 mg/kg, oral	326	385
3 h, 100 mg/kg, oral	–	62.9
3 h, 250 mg/kg, oral	–	81.1
4 h, 500 mg/kg, oral	244	–
5 min, 8 mg/kg, iv	96.6	91
5 min, 500 mg/kg, oral	81.7	–
6 h, 100 mg/kg, oral	49.4	50.8
6 h, 250 mg/kg, oral	108	67.4
6 h, 500 mg/kg, oral	285	–
8 h, 100 mg/kg, oral	79.9	33.1
8 h, 250 mg/kg, oral	68	78
8 h, 500 mg/kg, oral	234	266
10 h, 250 mg/kg, oral	103	–
10 h, 500 mg/kg, oral	–	264
10 min, 8 mg/kg, iv	131	79.9
16 h, 500 mg/kg, oral	118	57.9

COc1ccc(C(=O)c2ccccc2)c(O)c1 [2-Hydroxy-4-methoxybenzophenone]
concentration in plasma [ng/mL]
Settings	2 h	4 h	5 min
[7]	–	35.8	8920
[10]	804	–	24.7

concentration in plasma, [3]
Settings	Female	Male
0.5 h, 50 mg/kg, iv	3100 ng/mL	2820 ng/mL
0.5 h, 100 mg/kg, oral	47.5 ng/mL	53.3 ng/mL
0.5 h, 250 mg/kg, oral	2010 ng/mL	319 ng/mL
0.5 h, 500 mg/kg, oral	889 ng/mL	532 ng/mL
0.75 h, 100 mg/kg, oral	24.1 ng/mL	50.2 ng/mL
1 h, 50 mg/kg, iv	811 ng/mL	1030 ng/mL
1 h, 100 mg/kg, oral	20.6 ng/mL	50.6 ng/mL
1 h, 250 mg/kg, oral	82.8 ng/mL	97.4 ng/mL
1 h, 500 mg/kg, oral	3450 ng/mL	1460 ng/mL
1.5 h, 50 mg/kg, iv	495 ng/mL	442 ng/mL
1.5 h, 100 mg/kg, oral	48.1 ng/mL	26.9 ng/mL
1.5 h, 250 mg/kg, oral	55.1 ng/mL	68.9 ng/mL
2.5 min, 250 mg/kg, oral	18.2 ng/mL	–
2.5 min, 500 mg/kg, oral	3060 ng/mL	570 ng/mL
4 h, 50 mg/kg, iv	76.8 ng/mL	73.1 ng/mL
4 h, 100 mg/kg, oral	11.4 ng/mL	15 ng/mL
4 h, 250 mg/kg, oral	36.5 ng/mL	64.5 ng/mL
4 h, 500 mg/kg, oral	67.1 ng/mL	79.8 ng/mL
5 h, 100 mg/kg, oral	9.92 ng/mL	17.4 ng/mL
5 h, 250 mg/kg, oral	34.3 ng/mL	28.8 ng/mL
5 min, 50 mg/kg, iv	19100 ng/mL	38600 ng/mL
5 min, 100 mg/kg, oral	61.5 ng/mL	17 ng/mL
5 min, 250 mg/kg, oral	79.8 ng/mL	65.2 ng/mL
5 min, 500 mg/kg, oral	125 ng/mL	62.2 ng/mL
6 h, 50 mg/kg, iv	31.2 ng/mL	57.7 ng/mL
6 h, 100 mg/kg, oral	7 ng/mL	20.1 ng/mL
6 h, 250 mg/kg, oral	84 ng/mL	15.8 ng/mL
6 h, 500 mg/kg, oral	58 ng/mL	29.6 ng/mL
7 h, 250 mg/kg, oral	7.85 ng/mL	16.5 ng/mL
8 h, 50 mg/kg, iv	19.7 ng/mL	31.2 ng/mL
8 h, 500 mg/kg, oral	35.2 ng/mL	43.3 ng/mL
10 h, 500 mg/kg, oral	50.6 ng/mL	17.1 ng/mL
12 h, 50 mg/kg, iv	11 ng/mL	12.4 ng/mL
12 h, 500 mg/kg, oral	20.6 ng/mL and 9.67 ng/mL	17.1 ng/mL
16 h, 50 mg/kg, iv	20.4 ng/mL	18.2 ng/mL
16 h, 500 mg/kg, oral	5.14 ng/mL	–

concentration in plasma [ng/mL], [4], dosed: 2-Hydroxy-4-methoxybenzophenone, F344
Settings	Female	Male
0.5 h, 8 mg/kg, iv	583	625
0.5 h, 100 mg/kg, oral	46.6	60.2
0.5 h, 250 mg/kg, oral	435	141
0.5 h, 500 mg/kg, oral	276	172
1 h, 8 mg/kg, iv	229	248
1 h, 100 mg/kg, oral	43.4	130
1 h, 250 mg/kg, oral	335	305
1 h, 500 mg/kg, oral	1940	1430
1.5 h, 8 mg/kg, iv	111	131
1.5 h, 100 mg/kg, oral	139	50.2
1.5 h, 250 mg/kg, oral	278	276
2 h, 100 mg/kg, oral	19.4	57.7
2 h, 250 mg/kg, oral	53.9	275
2 h, 500 mg/kg, oral	410	850
2.5 min, 100 mg/kg, oral	67.7	10.5
2.5 min, 250 mg/kg, oral	12.4	20.2
4 h, 8 mg/kg, iv	–	53.5
4 h, 500 mg/kg, oral	120	–
5 h, 100 mg/kg, oral	9.43	14.4
5 min, 8 mg/kg, iv	4360	8120
5 min, 100 mg/kg, oral	12.4	5.98
5 min, 250 mg/kg, oral	35.9	27.4
5 min, 500 mg/kg, oral	29.3	17.7
6 h, 8 mg/kg, iv	16.2	18.6
6 h, 100 mg/kg, oral	–	16.5
6 h, 250 mg/kg, oral	12.8	30.3
6 h, 500 mg/kg, oral	98	–
8 h, 8 mg/kg, iv	11.9	19.8
8 h, 100 mg/kg, oral	24.2	9.92
8 h, 250 mg/kg, oral	12.8	35.6
8 h, 500 mg/kg, oral	111	242
10 h, 8 mg/kg, iv	18.1	–
10 h, 250 mg/kg, oral	15.9	28.5
10 h, 500 mg/kg, oral	–	145
12 h, 8 mg/kg, iv	6.04	–
12 h, 500 mg/kg, oral	33.8	42.7
16 h, 8 mg/kg, iv	8.64	7.13
16 h, 500 mg/kg, oral	26.1	16.6
25 min, 250 mg/kg, oral	–	25.6

Settings	concentration in plasma [ng/mL]
[8]	10.7
[9]	34.8

O=C(O)C(F)(F)C(F)(F)C(F)(F)C(F)(F)C(F)(F)F [Perfluorohexanoic Acid]
concentration in plasma [ng/mL], [4], dosed: Perfluorohexanoic Acid, 40 mg/kg
Settings	0.25 h	0.5 h	0.75 h	1 h	1.5 h	3 h	5 min	6 h	12 h	24 h
Female, Harlan Sprague Dawley	139000	56900	38000	38100	–	–	–	93.4	36.1	–
Male, F344	169000	131000	68000	76500	44100	15800	295000	5050	555	1550
Male, Harlan Sprague Dawley	–	–	–	–	31100	–	–	–	–	–

concentration in plasma [ng/mL], [4], dosed: Perfluorohexanoic Acid, oral, Harlan Sprague Dawley
Settings	0.25 h	0.5 h	0.75 h	1 h	3 h	5 min	6 h	9 h	12 h	24 h
40 mg/kg, Female	45000	31200	54100	–	–	–	11400	412	32.5	–
40 mg/kg, Male	39200	–	–	44500	16200	17900	15000	–	–	–
80 mg/kg, Female	42500	64200	101000	101000	24200	52600	10700	316	133	28.7
80 mg/kg, Male	–	–	–	–	–	–	25500	–	5190	–
160 mg/kg, Female	161000	181000	265000	144000	52100	93200	3120	1100	342	112
160 mg/kg, Male	184000	171000	243000	182000	150000	72700	29000	6990	5190	1050

Settings	concentration in plasma [ng/mL]
[11]	23400

[12]
Settings	concentration in plasma [ng/mL]
0.25 h	97900
24 h	56.1
